From patent US7981871B2, “Modified macromolescules and associated methods of synthesis and use” (University of Utah Research Foundation, priority 2003, dated 2011)
At least one structure is not confirmed: it was looked up by name or label, or the drawing left a doubt.

Tests used:
Experiment in all cases: Sensitivity to PI3K inhibitor and Taxol in 3-D culture (Carbylan-GSX hydrogels)
Type in all cases: cell-based, Human
CaCo-2 = system: CaCo-2
Description: (§1) Human breast cancer cell lines (MDA-MB-231 and MDA-MB-468), colon adenocarcinoma cell lines (Caco2, HCT116, and HCA7), and ovarian cancer cell (SK-OV-3) were obtained from American Type Culture Collections (ATCC) and maintained in RPMI 1640 medium (GIBCO) supplemented with 10 mM HEPES, 10% fetal bovine serum (Hyclone), 0.4 mM sodium pyruvate, and […], 100 U/ml penicillin, and 100 ug/ml streptomycin.
(§2) When reaching 80-90% confluence, the above cell lines were trypsinized with 0.25% trypsin containing 1 mM EDTA and suspended in 1.25% (w/v) Carbylan™-S and 3% (w/v) gelatin-DTPH in a 50:50 (v/v) ratio in serum-free RPMI medium (pH 7.4), and then 4% (w/v) solution of PEGDA in DPBS buffer was added to the Carbylan™-S/gelatin-DTPH solution at a ratio of 4:1 (Carbylan™-S :PEGDA, v:v) and mixed by vortexing for 30 second. The final concentration of cells in Carbylan™-GSX solution was 2.0×10^6/ml. Aliquots ([…]) of each reaction mixture loaded with cells were transferred by pipette into 24-well cell culture inserts (Coming incorporated, Coming, N.Y.) with 6.5 mm in diameter and […]. The cell loaded inserts were incubated in incubator (37° C. and 5% CO2) for two hours and then 2 ml of RPMI 1640 medium containing 10% FBS was added into each into each insert. The media were changed every two days. Two weeks after the initial culture, the media were removed from the inserts and changed with 10 mM of LY-294002 (Sigma) and 1 mg/ml of paclitaxel (Sigma) in RPMI 1640 medium containing 0.5% FBS. There were total eight inserts for each reagent each cell line. The media were also changed every two days. Two weeks after the media were changed to LY-294002 and paclitaxel containing media, the media were removed from the inserts and changed with 1.5 ml RPMI 1640 media containing 5% FBS and 15% (v/v) CellTiter 96 aqueous one solution cell proliferation assay (Promega, Madison, Wis.) and incubated in incubator (37° C. and 5% CO2) for three hours and then the reaction solution was transferred into 96-well plate ([…]) and the absorbance was read at 550 nm with an OPTI Max microplate reader (Molecular Devices). The inserts were rinsed twice with DPBS buffer and stained with FDA and PI at RT for 5 min and observed using a confocal laser scanning microscope (LSM 510, Carl Zeiss Microimaging, Inc., Thornwood, N.Y.).

HCA7 = details: 10 mM LY-294002 or 1 mg/ml paclitaxel, two weeks
Description: as §1, §2

HCT116 = details: 10 mM LY-294002 or 1 mg/ml paclitaxel, two weeks
Description: as §1, §2

MDA-MB-231 = MDA-MB-231 in Carbylan-GSX; 10 mM LY-294002 or 1 mg/ml paclitaxel; two weeks
Description: as §1, §2

MDA-MB-468 = MDA-MB-468 in Carbylan-GSX; 10 mM LY-294002 or 1 mg/ml paclitaxel; two weeks
Description: as §1, §2

SK-OV-3 = system: SK-OV-3
Description: as §1, §2

## O=c1cc(N2CCOCC2)oc2c(-c3ccccc3)cccc12 [LY294002]
CaCo-2; CaCo-2 in Carbylan-GSX, 10 mM LY-294002 or 1 mg/ml paclitaxel, two weeks
  proliferation (CellTiter 96, absorbance at 550 nm): inhibited
CaCo-2; Caco-2, compared to cells cultured in normal medium
  cell density in sECM hydrogels (FDA/PI staining): decreased
HCA7
  proliferation (CellTiter 96, absorbance at 550 nm): inhibited
HCT116
  proliferation (CellTiter 96, absorbance at 550 nm): inhibited
MDA-MB-231
  proliferation (CellTiter 96, absorbance at 550 nm): Neither LY294002 and paclitaxel showed any inhibition effects
MDA-MB-468
  proliferation (CellTiter 96, absorbance at 550 nm): inhibited
SK-OV-3; SK-OV-3, compared to cells cultured in normal medium
  3-D morphology (FDA/PI staining): no obvious difference
SK-OV-3; SK-OV-3 in Carbylan-GSX, 10 mM LY-294002 or 1 mg/ml paclitaxel, two weeks
  proliferation (CellTiter 96, absorbance at 550 nm): Neither LY294002 and paclitaxel showed any inhibition effects
